Results are given in words; binding and its absence hold for the method and conditions named. Some binding calls cover weakened binding; strength is not graded here.
Experiments:
[1] = biological target: biotinylated complete Aβ1-42 peptide (human sequence) (human); assay: ELISA, biotinylated longer peptides
[2] = biological target: biotinylated Aβ1-40 peptide; assay: ELISA, biotinylated longer peptides
[3] = biological target: biotinylated complete Aβ1-42 peptide (human sequence) (human); assay: peptide library ELISA, complete Aβ1-42 as positive control
[4] = biological target: Aβ1-42 peptide fraction enriched in oligomers (high molecular weight fraction from SEC); assay: ELISA on coated SEC fractions
[5] = biological target: Aβ1-42 peptide fraction consisting primarily of monomers (LMW monomer fraction from SEC); assay: ELISA on coated SEC fractions

Measured: binding

B1: mouse monoclonal antibody ACI-11-Ab-9 (antibody, V domains shown)
VH: QVQLQQSDAELVKPGASVKISCKVSGYTFTDHTIHWMKQRPEQGLEWIGYIYPRDGSTKYNEKFKGKATLTADKSSSTAYMQLNSLTSEDSAVYFCARDYGYAFDYWGQGTTLTVSS
VL: QAVVTQESALTTSPGGTVILTCRSSTGAVTTSNYANWVQEKPDHLFTGLIGGTSNRAPGVPVRFSGSLIGDKAALTITGAQTEDDAMYFCALWYSTHYVFGGGTKVTVL
binds: [1] | [2] | [3]

B2: mouse monoclonal antibody ACI-12-Ab-11 (antibody, V domains shown)
VH: B1 VH
VL: B1 VL
binds: [1] | [2] | [4] | [5] | [3]

From patent US20160000910A1
